Results are given in words; binding and its absence hold for the method and conditions named. In cells and extracts the contact can be indirect. Some entries that bind do so weakly or less than the wild type.
Tests used:
FLAG-HSC70 (aa 1-386) = FLAG-HSC70 (aa 1-386) (UniProt P11142); experiment: co-IP; Huh-7.5 cells co-transfected, harvested 48 h after transfection; lysate (150 mM NaCl, 50 mM Tris-HCl pH 7.5, 1% NP-40, 0.1% SDS, 1% sodium deoxycholic acid, 1 mM EDTA) immunoprecipitated with anti-FLAG mAb at 4°C, five washes, blot with anti-HA and anti-FLAG
FLAG-HSC70 = FLAG-HSC70 (UniProt P11142); experiment: as above

Protein sequences, listed by entry. Tags and fused reporters are not part of them. Lines headed by an entry give the natural chain unless they say otherwise; changes in a name come on top. Residues count along the entry.
UniProt P11142: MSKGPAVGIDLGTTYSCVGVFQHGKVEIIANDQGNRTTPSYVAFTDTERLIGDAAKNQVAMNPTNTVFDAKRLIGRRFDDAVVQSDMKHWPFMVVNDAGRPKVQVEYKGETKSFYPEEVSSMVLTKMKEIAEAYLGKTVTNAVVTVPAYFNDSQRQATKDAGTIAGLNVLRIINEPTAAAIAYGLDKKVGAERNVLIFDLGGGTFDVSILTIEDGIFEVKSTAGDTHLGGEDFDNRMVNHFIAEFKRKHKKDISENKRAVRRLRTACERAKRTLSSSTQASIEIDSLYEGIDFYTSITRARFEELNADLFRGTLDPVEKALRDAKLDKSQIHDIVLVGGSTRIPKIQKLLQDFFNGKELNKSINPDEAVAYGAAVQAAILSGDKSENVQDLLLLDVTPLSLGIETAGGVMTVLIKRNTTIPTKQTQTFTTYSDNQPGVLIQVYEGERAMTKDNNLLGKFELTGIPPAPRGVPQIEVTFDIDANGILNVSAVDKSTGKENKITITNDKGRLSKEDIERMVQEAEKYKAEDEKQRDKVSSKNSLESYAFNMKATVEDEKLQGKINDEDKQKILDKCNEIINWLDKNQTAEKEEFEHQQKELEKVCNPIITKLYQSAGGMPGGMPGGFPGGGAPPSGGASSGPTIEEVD
FLAG-HSC70 (aa 1-386): residues 1-386 of P11142
UniProt P46937: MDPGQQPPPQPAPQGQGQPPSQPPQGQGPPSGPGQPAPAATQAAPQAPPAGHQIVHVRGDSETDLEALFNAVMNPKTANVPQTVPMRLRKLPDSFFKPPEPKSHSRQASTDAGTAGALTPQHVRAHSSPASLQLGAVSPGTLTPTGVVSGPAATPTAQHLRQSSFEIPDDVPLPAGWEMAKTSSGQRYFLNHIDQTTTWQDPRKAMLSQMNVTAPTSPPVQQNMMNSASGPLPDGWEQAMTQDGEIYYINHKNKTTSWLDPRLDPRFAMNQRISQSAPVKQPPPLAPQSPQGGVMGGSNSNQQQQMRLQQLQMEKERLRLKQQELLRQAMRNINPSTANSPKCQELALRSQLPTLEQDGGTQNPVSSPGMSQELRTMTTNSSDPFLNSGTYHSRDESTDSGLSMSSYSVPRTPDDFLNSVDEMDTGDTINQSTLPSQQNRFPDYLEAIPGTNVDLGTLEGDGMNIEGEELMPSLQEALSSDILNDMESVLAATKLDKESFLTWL

Row | Substance | binding (FLAG-HSC70 (aa 1-386)) | binding (FLAG-HSC70)
1 | HA-YAP1 wild-type (Yes-associated protein 1) (from UniProt P46937 1-504) | no binding | binds
2 | YAP1 phosphorylated at serine 127 (from UniProt P46937 1-504) | – | binds
